The exact form of at least one protein or probe is not confirmed. A weaker result is weaker than the reference pair of the same experiment. For part of these data: At least one verdict rests on a figure or table, not on a statement of the authors. For part of these data: Protein sequences can lack the tags named with them.
Key:
Experiment in all cases: EMSA
[1] = target: T1, Mer3 (Saccharomyces cerevisiae) (UniProt P51979); details: EMSA: 25 mM HEPES pH 7.5, 0.1 ug/ul BSA, 60 mM NaCl, 10 nM DNA, 20 min at 30 C, 0.8% agarose in 1x TAE, Mer3 37.5-300 nM, Mlh1-Mlh2 20-150 nM, recombinant protein, residues 1-1187, protein details: C-terminal Twin-StrepII
T1 sequence (looked up): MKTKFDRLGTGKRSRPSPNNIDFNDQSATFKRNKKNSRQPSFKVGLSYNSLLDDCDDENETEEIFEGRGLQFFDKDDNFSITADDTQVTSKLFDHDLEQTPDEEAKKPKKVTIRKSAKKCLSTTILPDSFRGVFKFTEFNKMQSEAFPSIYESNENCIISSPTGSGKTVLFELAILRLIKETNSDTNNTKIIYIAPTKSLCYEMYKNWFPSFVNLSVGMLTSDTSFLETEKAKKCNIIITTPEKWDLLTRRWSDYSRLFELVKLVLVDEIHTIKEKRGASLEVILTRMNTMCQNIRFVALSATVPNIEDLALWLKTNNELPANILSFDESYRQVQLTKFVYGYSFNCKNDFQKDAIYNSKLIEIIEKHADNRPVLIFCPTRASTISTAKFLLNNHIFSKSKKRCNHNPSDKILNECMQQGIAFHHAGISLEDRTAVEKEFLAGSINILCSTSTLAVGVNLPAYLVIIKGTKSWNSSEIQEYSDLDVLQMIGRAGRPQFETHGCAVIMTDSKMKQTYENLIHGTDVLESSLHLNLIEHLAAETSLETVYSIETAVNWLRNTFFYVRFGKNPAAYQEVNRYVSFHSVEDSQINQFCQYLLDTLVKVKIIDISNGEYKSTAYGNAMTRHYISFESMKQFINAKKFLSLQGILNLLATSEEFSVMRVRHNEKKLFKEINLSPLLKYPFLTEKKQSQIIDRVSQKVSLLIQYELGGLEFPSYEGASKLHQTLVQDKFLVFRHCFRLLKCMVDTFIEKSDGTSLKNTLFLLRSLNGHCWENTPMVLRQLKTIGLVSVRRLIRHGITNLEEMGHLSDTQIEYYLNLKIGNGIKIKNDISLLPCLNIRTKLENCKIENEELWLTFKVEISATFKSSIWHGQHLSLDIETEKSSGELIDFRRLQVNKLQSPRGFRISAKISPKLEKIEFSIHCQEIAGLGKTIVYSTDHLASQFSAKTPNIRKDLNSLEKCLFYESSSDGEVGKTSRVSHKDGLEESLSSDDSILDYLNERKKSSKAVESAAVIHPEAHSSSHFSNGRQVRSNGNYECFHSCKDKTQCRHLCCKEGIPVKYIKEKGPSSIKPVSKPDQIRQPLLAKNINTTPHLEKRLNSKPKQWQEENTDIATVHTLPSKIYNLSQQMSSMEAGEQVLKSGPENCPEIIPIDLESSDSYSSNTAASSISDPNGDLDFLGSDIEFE

His-Mlh1 + Strep-Mlh2 = details: more limited binding than D-loop, EMSA: 25 mM HEPES pH 7.5, 0.1 ug/ul BSA, 60 mM NaCl, 10 nM DNA, 20 min at 30 C, 0.8% agarose in 1x TAE, Mer3 37.5-300 nM, Mlh1-Mlh2 20-150 nM, recombinant protein, protein details: N-terminal 6xHis,N-terminal Twin-StrepII
MBP-Mlh1 + MBP-Mlh2 = details: more limited binding than D-loop, EMSA: 25 mM HEPES pH 7.5, 0.1 ug/ul BSA, 60 mM NaCl, 10 nM DNA, 20 min at 30 C, 0.8% agarose in 1x TAE, Mer3 37.5-300 nM, Mlh1-Mlh2 20-150 nM, recombinant protein, protein details: N-terminal 6xHis-MBP,N-terminal 6xHis-MBP
[2] = label: 5'-FAM, single-stranded DNA

## GGGTCAACGTGGGCAAAGATGTCCTAGCAATGTAATCGTCTATGACGTT / TGCCGAATTCTACCAGTGCCAGTGATGGACATCTTTGCCCACGTTGACCC [Y-form (1253-T/1254)]
[1]; ssDNA and D-loop stated as highest affinity, label: 5'-FAM on strand 1
  binding result: binds more weakly

## TGGGTCAACGTGGGCAAAGATGTCCTAGCAATGTAATCGTCTATGACGTT [ssDNA 1253]
[1]; no Mg or ATP, high affinity, label: 5'-FAM, single-stranded DNA
  binding result: binds
His-Mlh1 + Strep-Mlh2; [2]
  binding result: binds more weakly
MBP-Mlh1 + MBP-Mlh2; [2]
  binding result: binds more weakly

## TGGGTCAACGTGGGCAAAGATGTCCTAGCAATGTAATCGTCTATGACGTT (double strand) [dsDNA (1253/1253C)]
His-Mlh1 + Strep-Mlh2; label: 5'-FAM on strand 1
  binding result: binds more weakly
MBP-Mlh1 + MBP-Mlh2; label: 5'-FAM on strand 1
  binding result: binds more weakly

From publication PMC10201424
